No constants are given. Whether binding was seen depends on the method and setting. Binding seen in cells or lysates may run through a third protein. Some entries that bind do so weakly or less than the wild type. Blank lines part the entries; values can stand above or below the substance they belong to.
Key:
[1] = molecular target: EGFR (transfected 293T cells) (UniProt P00533); assay: co-IP; 293T cells co-transfected with EGFR and Myc-tagged ZNRF3 constructs; lysate amounts adjusted to comparable EGFR; EGFR IP followed by Myc-tag IB
[2] = molecular target: EGFR (ectopically expressed in MDA-MB-231 cells) (UniProt P00533); assay: co-IP; lysates of MDA-MB-231 cells co-infected with lentivirus carrying EGFR and Myc-tagged ZNRF3/RNF43; anti-EGFR IP; NP-40 or RIPA lysis buffer, Protein G Sepharose, overnight at 4 °C
[3] = molecular target: Myc-tagged ZNRF3 full-length (FL) (UniProt Q9ULT6); assay: co-IP; 293T cells co-transfected with EGFR and Myc-tagged ZNRF3 constructs; lysate amounts adjusted to comparable EGFR; Myc-tag IP followed by EGFR IB

The chains behind the UniProt entries cited, without tags or fusion partners. Residues count along the entry.
UniProt Q9ULT6, residues 56-936: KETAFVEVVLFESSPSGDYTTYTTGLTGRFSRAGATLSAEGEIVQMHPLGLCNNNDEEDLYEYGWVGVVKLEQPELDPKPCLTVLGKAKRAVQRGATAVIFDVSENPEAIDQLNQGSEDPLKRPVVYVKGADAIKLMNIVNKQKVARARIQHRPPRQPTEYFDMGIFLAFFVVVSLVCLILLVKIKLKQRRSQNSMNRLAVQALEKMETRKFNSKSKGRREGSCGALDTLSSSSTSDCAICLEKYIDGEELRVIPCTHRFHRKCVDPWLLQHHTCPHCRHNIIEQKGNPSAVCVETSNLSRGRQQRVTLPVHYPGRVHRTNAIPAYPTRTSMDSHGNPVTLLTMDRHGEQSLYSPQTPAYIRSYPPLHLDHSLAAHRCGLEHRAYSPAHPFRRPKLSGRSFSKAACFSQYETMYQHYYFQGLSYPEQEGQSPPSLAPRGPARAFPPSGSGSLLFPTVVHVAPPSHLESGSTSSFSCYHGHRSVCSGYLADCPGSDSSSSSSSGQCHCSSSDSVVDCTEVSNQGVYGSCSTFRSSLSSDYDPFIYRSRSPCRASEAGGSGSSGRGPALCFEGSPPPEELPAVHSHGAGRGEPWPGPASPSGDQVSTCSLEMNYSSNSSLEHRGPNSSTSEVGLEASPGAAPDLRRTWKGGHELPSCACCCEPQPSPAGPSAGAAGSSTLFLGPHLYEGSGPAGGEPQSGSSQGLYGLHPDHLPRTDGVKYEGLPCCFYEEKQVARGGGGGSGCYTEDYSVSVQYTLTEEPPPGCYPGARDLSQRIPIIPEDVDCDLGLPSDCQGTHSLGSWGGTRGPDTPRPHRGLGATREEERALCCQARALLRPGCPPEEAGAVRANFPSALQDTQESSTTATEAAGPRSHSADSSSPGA

- binding [1]: binds
Substance: Myc-tagged ZNRF3 full-length (FL) (from UniProt Q9ULT6 56-936) (enzyme)

- binding [2]: binds
Substance: Myc-tagged ZNRF3 (MDA-MB-231) (from UniProt Q9ULT6 56-936) (enzyme)

- binding [3]: binds
Substance: EGFR (transfected 293T cells) (from UniProt P00533 25-1210) (receptor)

— publication doi:10.1101/2024.01.10.574969
